Structures are written as SMILES. Some of the results follow.

This passage reports normalized cell count results from PubChem BioAssay AID1273 (Columbia University Molecular Screening Center, 2008).

A short description of this assay: inhibitors of insulin promoter-driven GFP, primary screen, imaging, TRM-6 cells (human fetal islet line), eGFP reporter, cell count (AID 1273;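 also: cells exposed to compound for 48 h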). Conditions: measured here: cell count, toxicity, at 2 µM, reporter expression induced with tamoxifen.
As for `COc1ccc(N/C(=N/P(=O)(N2CCOCC2)N2CCOCC2)N2CCOCC2)cc1`, the normalized cell count was 136%.

`Cc1c2c(nc3ccccc13)SC(C(Cl)Cl)C2` (centres undefined) yielded a normalized cell count of 116%.

For `O=C(OC1CN2CCC1CC2)C12CC3CC(CC(C3)C1)C2` (centres undefined), the normalized cell count came out at 153%.

The compound `CCN(CC)CCCOC(=O)C(O)(c1ccccc1)c1ccccc1` gave a normalized cell count of 148%.

The compound `Cc1cc(=O)[nH]c(N[N+](=O)[O-])n1` showed a normalized cell count of 126%.

`COc1ccc2nc(NP(=O)(c3ccccc3)c3ccccc3)sc2c1` returned a normalized cell count of 143%.

Take `CCOC(=O)c1ccc(NP(C)(=O)Oc2ccccc2)cc1` (centres undefined): the normalized cell count was 207%.

On to `ClCCSc1nnc(-c2cccnc2)o1`, for which the normalized cell count stood at 130%.

For `CCN(CC)C(=S)SC(NC=O)C(Cl)(Cl)Cl` (centres undefined), the normalized cell count came to 135%.

`COc1ccc(OP(C)(=O)Nc2cccc(F)c2)cc1` (centres undefined) returned a normalized cell count of 118%.

In the case of `CC(C)(C)c1ccc(OP(C)(=O)Nc2ccc(SC(F)(F)F)cc2)cc1` (centres undefined), the normalized cell count is 116%.

`Cc1ccc2nc3c(c(C)c2c1)CC(C(Cl)Cl)S3` (centres undefined): the normalized cell count was 81%.

The compound `CP(=S)(Nn1cnnc1)Oc1ccccc1` (centres undefined) yielded a normalized cell count of 95.4%.

`COc1ccccc1OP(C)(=O)Nc1ccccc1` (centres undefined) registered a normalized cell count of 109%.

`CP(=O)(Nc1ccccc1Br)Oc1ccccc1` (centres undefined) displayed a normalized cell count of 104%.

As to `CCOP(C)(=S)SCC(=O)NC(C)C(=O)O` (centres undefined), the normalized cell count came out at 101%.

Regarding `CCOC(=O)c1ccc(NP(C)(=O)Oc2ccc(OC)cc2)cc1` (centres undefined), the normalized cell count turned out to be 118%.

`CCC(C)N(CC(C)C)C(=S)SC(NC(C)=O)C(Cl)(Cl)Cl` (centres undefined) showed a normalized cell count of 115%.

For the compound `CP(=O)(Nc1ccccn1)Oc1ccc(Cl)cc1` (centres undefined), the normalized cell count turned out to be 116%.

Take `COP1(=S)c2c(C)nn(CCC#N)c2N=C(c2ccc(F)cc2)N1C` (centres undefined): the normalized cell count was 97.3%.

`CP(=O)(NC(=O)Nc1ccccc1)Oc1ccccc1` (centres undefined) had a normalized cell count of 73.7%.

Turning to `Cc1cc(C)cc(OP(C)(=O)Nc2ccc(SC(F)(F)F)cc2)c1` (centres undefined), the normalized cell count is 110%.

Turning to `Cc1nc2ccc3ccccc3c2s1.O=[N+]([O-])c1cc([N+](=O)[O-])c(O)c([N+](=O)[O-])c1`, the normalized cell count worked out at 82.3%.

For `CC1(CBr)Cn2c(nc3ccccc3c2=O)S1` (centres undefined), the normalized cell count was 117%.

In turn, `CN1CCCCC1COC(=O)C1(O)c2ccccc2CCc2ccccc21` (centres undefined) registered a normalized cell count of 123%.

Compound `COc1ccccc1OP(C)(=O)Nc1c(C)cccc1C` (centres undefined) registered a normalized cell count of 89.7%.

`CCCOc1ccc(NP(C)(=O)Oc2ccc(Cl)cc2)cc1` (centres undefined) returned a normalized cell count of 56.1%.

`CP(=O)(Nc1ccc(SC(F)(F)F)cc1)Oc1ccccc1` (centres undefined) yielded a normalized cell count of 173%.

Consider `Cc1ccc(OCC(=O)OC2CN3CCC2CC3)cc1` (centres undefined), for which the normalized cell count worked out at 102%.

For the compound `Cc1nn(-c2ccccc2)c2c1P(=O)(N1CCOCC1)N(C)C(c1ccccc1)=N2` (centres undefined), the normalized cell count amounted to 91.4%.

`COc1cc(C2NCCC3(OCCO3)C2(C)C)cc(OC)c1OC.O=[N+]([O-])c1cc([N+](=O)[O-])c(O)c([N+](=O)[O-])c1` (centres undefined): the normalized cell count was found to be 77.1%.

In turn, `O=[N+]([O-])c1ccc2c(c1)nnn2O` displayed a normalized cell count of 126%.

With `CCOP1(=S)c2c(C)nn(CCC#N)c2N=C(c2ccccc2F)N1C` (centres undefined), the normalized cell count amounted to 119%.

On to `O=P(Nc1nccs1)(Oc1ccccc1)Oc1ccccc1`, for which the normalized cell count amounted to 105%.

`Cc1cc(C)cc(OP(C)(=O)Nc2ccccn2)c1` (centres undefined): the normalized cell count was determined as 193%.

The compound `Cc1ccc(C)c(NP(C)(=O)Oc2ccccc2)c1` (centres undefined) gave a normalized cell count of 188%.

Take `CCOP(=O)(Nc1cccc2ccccc12)OCC`: the normalized cell count was determined as 79%.

On to `COc1cc(C(=O)NCC2(N3CCOCC3)CCCCC2)cc(Cl)c1OC(C)C`, for which the normalized cell count worked out at 172%.

Take `Cc1cccc(OCC(=O)OC2CN3CCC2CC3)c1` (centres undefined): the normalized cell count stood at 116%.

Compound `Cc1cc(C)cc(OP(C)(=O)Nc2ccc(C)cc2C)c1` (centres undefined) gave a normalized cell count of 90.2%.

In turn, `CCOC(=O)c1ccc(NP(C)(=O)Oc2cc(C)cc(C)c2)cc1` (centres undefined) had a normalized cell count of 108%.

In turn, `O=C(OCCN1CCN(CCOCc2ccccc2)CC1)C(O)(c1ccccc1)c1ccccc1` displayed a normalized cell count of 51.1%.

`CC(C)(C)C(=O)NC(Sc1ccccc1)C(Cl)(Cl)Cl` (centres undefined) registered a normalized cell count of 84%.

Compound `CCC(=O)N1C2C3N(C(=O)CC)C1C1N(C(=O)CC)C(C(N1C(=O)CC)N3C(=O)CC)N2C(=O)CC` had a normalized cell count of 124%.

`CCN(CC)CCCOC(=O)C(O)(c1ccccc1)C1CCCCC1` (centres undefined) yielded a normalized cell count of 86.8%.

Compound `COC(=O)c1cc2c(s1)N=C(c1ccccc1)N(C)P2(=O)N1CCOCC1` (centres undefined) returned a normalized cell count of 47.4%.

As to `Cc1ccc(OP(=O)(Nc2ccccn2)Oc2ccc(C)cc2)cc1`, the normalized cell count turned out to be 75.1%.

For the compound `CC(=O)NC(SC(=S)N(CC(C)C)CC(C)C)C(Cl)(Cl)Cl` (centres undefined), the normalized cell count came out at 55.3%.

With `CP(=O)(Nc1ccccc1)Oc1ccc(F)cc1` (centres undefined), the normalized cell count is 203%.

On to `c1ccc(-c2nn[nH]n2)c(-c2nn[nH]n2)c1`, for which the normalized cell count stood at 96.1%.

In turn, `COc1ccc(OP(C)(=O)Nc2ccc(SC(F)(F)F)cc2)cc1` (centres undefined) displayed a normalized cell count of 100%.

As for `CCOC(=O)c1ccc(NP(C)(=O)Oc2ccc(F)cc2)cc1` (centres undefined), the normalized cell count was found to be 99.3%.

`CC(=O)NC(SC(=S)N(C)C)C(Cl)(Cl)Cl` (centres undefined) yielded a normalized cell count of 85.8%.

The compound `C(Cc1nn[nH]n1)Cc1nn[nH]n1` came in with a normalized cell count of 147%.

In turn, `CN(C)CCOC(=O)C(O)(c1ccccc1)C1CCCCC1` (centres undefined) came in with a normalized cell count of 107%.

In turn, `CP(=O)(Nc1ccc2c(c1)OCCO2)Oc1ccccc1` (centres undefined) returned a normalized cell count of 129%.

Compound `Cc1ccccc1NP(C)(=O)Nc1ccccc1C` registered a normalized cell count of 126%.

With `O=P(Nc1nccs1)(c1ccccc1)c1ccccc1`, the normalized cell count was 51.1%.

Take `CC(C)C(=O)NC(Sc1ccccc1)C(Cl)(Cl)Cl` (centres undefined): the normalized cell count was found to be 95.4%.

Consider `CCN(/C(=N/P(=O)(N1CCOCC1)N1CCOCC1)N1CCOCC1)c1ccc(OC)cc1`, for which the normalized cell count was determined as 102%.

As for `CP(=O)(Nc1ccc(Cl)cc1)Oc1ccc(F)cc1` (centres undefined), the normalized cell count is 143%.

In turn, `COc1ccccc1OP(C)(=O)Nc1ccccc1Br` (centres undefined) gave a normalized cell count of 98.3%.

In turn, `CC(C)(C)c1ccc(OP(C)(=O)O)cc1` showed a normalized cell count of 126%.

On to `CC1CCN(C(=O)Oc2c(Cl)cc(Cl)c3cccnc23)CC1`, for which the normalized cell count turned out to be 113%.

The compound `CN(C)C(=O)c1c([N+](=O)[O-])cc([N+](=O)[O-])cc1[N+](=O)[O-]` yielded a normalized cell count of 96.6%.

`CN(C)C(=O)OCCc1n(C)cc[n+]1C` came in with a normalized cell count of 105%.

Compound `CCN(CC)CC(O)COC(=O)C(O)(c1ccccc1)C1CCCCC1` (centres undefined) had a normalized cell count of 236%.

`COc1ccc(OP(C)(=O)Nc2ccc(Br)cc2)cc1` (centres undefined): the normalized cell count amounted to 95.5%.

`COc1ccc(C2=NCC(CBr)S2)cc1` (centres undefined): the normalized cell count was 98.8%.

`O=[N+]([O-])c1cc([N+](=O)[O-])c(CCNc2ccccc2)c([N+](=O)[O-])c1` gave a normalized cell count of 85.9%.

Turning to `CCc1nc2c(n1)c1c(non1O)c1c2no[n+]1[O-]`, the normalized cell count is 71.6%.

In turn, `CC(=O)N1C2C3N(C(C)=O)C1C1N(C(C)=O)C(C(N1C(C)=O)N3C(C)=O)N2C(C)=O` yielded a normalized cell count of 64.8%.

Regarding `O=[N+]([O-])c1cccc2n[nH]nc12`, the normalized cell count was 132%.

In the case of `COc1ccccc1OP(C)(=O)Nc1c(C)n(C)n(-c2ccccc2)c1=O` (centres undefined), the normalized cell count worked out at 99%.

`O=[N+]([O-])c1ncn(CCn2ncnc2[N+](=O)[O-])n1` yielded a normalized cell count of 90.2%.

Compound `CP(=O)(OC12CC3CC(CC(C3)C1)C2)OC12CC3CC(CC(C3)C1)C2` returned a normalized cell count of 104%.

For the compound `CCOC(=O)c1ccc(NP(C)(=O)Oc2ccc(Cl)cc2)cc1` (centres undefined), the normalized cell count worked out at 79.4%.

The compound `Cc1nc2ccc3ccccc3c2o1.O=[N+]([O-])c1cc([N+](=O)[O-])c(O)c([N+](=O)[O-])c1` returned a normalized cell count of 81.5%.

Turning to `CCN(N=Nc1nonc1N)c1nonc1N`, the normalized cell count turned out to be 103%.

As for `COc1ccc(OP(C)(=O)Nc2ccccc2Br)cc1` (centres undefined), the normalized cell count was found to be 98.8%.

Regarding `CCOP(=O)(Nc1ccccc1)OCC`, the normalized cell count turned out to be 93.7%.

`COc1ccccc1OP(C)(=O)Nc1ccc(C)c(C)c1` (centres undefined) came in with a normalized cell count of 124%.

For the compound `Oc1ccccc1CNc1ccccn1`, the normalized cell count is 132%.

Compound `O=C(NC(Sc1ccncn1)C(Cl)(Cl)Cl)c1ccccc1` (centres undefined) displayed a normalized cell count of 126%.

`Cc1c(NP(C)(=O)Oc2ccc(C(C)C)cc2)c(=O)n(-c2ccccc2)n1C` (centres undefined): the normalized cell count turned out to be 67.6%.

`CC(C)CC(=O)NC(Sc1ccc(Cl)cc1)C(Cl)(Cl)Cl` (centres undefined) registered a normalized cell count of 80.2%.

Consider `CCc1ccc(OP(C)(=O)O)cc1`, for which the normalized cell count worked out at 116%.

Consider `CP(=O)(Nc1ccccn1)Oc1ccccc1` (centres undefined), for which the normalized cell count is 174%.

The compound `COc1ccccc1OP(C)(=O)Nc1ccc(C)cc1C` (centres undefined) yielded a normalized cell count of 69.6%.

Compound `Cc1ccc(N/C(=N/P(=O)(N2CCOCC2)N2CCOCC2)N2CCOCC2)cc1` came in with a normalized cell count of 113%.

In turn, `NC(=O)c1cc([N+](=O)[O-])cc([N+](=O)[O-])c1N` showed a normalized cell count of 118%.

`CN1CCCC(OC(=O)C(c2ccccc2)c2ccccc2)C1` (centres undefined) gave a normalized cell count of 206%.

As to `CN(C)CCOC(=O)C(O)(c1ccccc1)C1CCCC1` (centres undefined), the normalized cell count worked out at 106%.

`COc1ccc(OP(C)(=O)Nc2ccccn2)cc1` (centres undefined) returned a normalized cell count of 68.5%.
